How the values were obtained:
HCT116 cells = experiment: Anti-proliferation assay (Alamar Blue metabolism), HCT116; assay type: cell-based; conditions: Homo sapiens, itraconazole 0 μM, read-out: Percent inhibition of Alamar Blue Metabolism
Description: Amiodarone, nicardipine, and bepridil were obtained from Sigma Chemical Co. (St. Louis, Mo.). Itraconazole was obtained from […].). Stock solutions (1000×) of each compound were prepared in DMSO and stored at -20° C. Master stock plates of 2-fold serial dilutions of individual compounds were prepared in 384-well plates. Combination matrices of test compounds were generated from these master stock plates by dilution into growth media described above. […] The combination matrices were used immediately and discarded. The anti-proliferation assays were performed in 384 well plates. […] Cells were diluted in culture media such that 3,000 SKMEL cells, or 1,500 cells for all the other cell lines, were delivered in 35 μl of media into each assay well. […] Then, 4.5 μl of 10× stock solutions from the combination matrices were added to 40 μl of culture media. […] Quantification, using the LJL Analyst AD reader (LJL Biosystems), was taken in the middle of the well with high attenuation, a 100 msec read time, an excitation filter at 530 nm, and an emission filter at 575 nm. For some experiments, quantification was performed using a Wallac Victor^2 reader. Measurements were taken at the top of the well with stabilized energy lamp control; a 100 msec read time, an excitation filter at 530 nm, and an emission filter at 590 nm. No significant differences between plate readers were measured. […] Negative inhibition values result from local variations in treated wells as compared to untreated wells.

SKMEL-28 cells = experiment: Anti-proliferation assay (Alamar Blue metabolism), SKMEL-28; assay type: cell-based; conditions: Homo sapiens, SK-MEL-28; read-out: Percent inhibition of Alamar Blue Metabolism
Description: (§1) Itraconazole was obtained from […].). Stock solutions (1000×) of each compound were prepared in DMSO and stored at -20° C. Master stock plates of 2-fold serial dilutions of individual compounds were prepared in 384-well plates. Combination matrices of test compounds were generated from these master stock plates by dilution into growth media described above. […] The combination matrices were used immediately and discarded. The anti-proliferation assays were performed in 384 well plates. […] Cells were diluted in culture media such that 3,000 SKMEL cells, or 1,500 cells for all the other cell lines, were delivered in 35 μl of media into each assay well. […] Then, 4.5 μl of 10× stock solutions from the combination matrices were added to 40 μl of culture media. […] Quantification, using the LJL Analyst AD reader (LJL Biosystems), was taken in the middle of the well with high attenuation, a 100 msec read time, an excitation filter at 530 nm, and an emission filter at 575 nm. For some experiments, quantification was performed using a Wallac Victor^2 reader. Measurements were taken at the top of the well with stabilized energy lamp control; a 100 msec read time, an excitation filter at 530 nm, and an emission filter at 590 nm.

DU145 cells = experiment: Anti-proliferation assay (Alamar Blue metabolism), DU145; assay type: cell-based, human; conditions: itraconazole 0 μM
Description: as §1

A549 cells = experiment: Anti-proliferation assay (Alamar Blue metabolism), A549; assay type: cell-based
Description: as §1

[1] = Homo sapiens, A549, read-out: Percent inhibition of Alamar Blue Metabolism

CCCCc1oc2ccccc2c1C(=O)c1cc(I)c(OCCN(CC)CC)c(I)c1 [Amiodarone, (2-Butyl-3-benzofuranyl)(4-(2-(diethylamino)ethoxy)-3,5-diidophenyl)methanone]
inhibition at 0.23 µM (HCT116 cells; HCT-116, amiodarone 0.23 μM): -3.7% | inhibition at 0.46 µM (HCT116 cells; HCT-116, amiodarone 0.46 μM): -3.7% | inhibition at 0.92 µM (HCT116 cells; HCT-116, amiodarone 0.92 μM): 3.1% | inhibition at 1.8 µM (HCT116 cells; HCT-116, amiodarone 1.8 μM): -1.4% | inhibition at 3.7 µM (HCT116 cells; HCT-116, amiodarone 3.7 μM): 7.6% | inhibition at 7.3 µM (HCT116 cells; HCT-116, amiodarone 7.3 μM): 7.4% | inhibition at 15 µM (HCT116 cells; HCT-116, amiodarone 15 μM): 36% | inhibition at 29 µM (HCT116 cells; HCT-116, amiodarone 29 μM): 94.7% | inhibition at 0.23 µM (SKMEL-28 cells): 2.2% | inhibition at 0.92 µM (SKMEL-28 cells): 3.8% | inhibition at 1.8 µM (SKMEL-28 cells): 0.8% | inhibition at 3.7 µM (SKMEL-28 cells): -0.3% | inhibition at 7.3 µM (SKMEL-28 cells): 1.4% | inhibition at 15 µM (SKMEL-28 cells): 22% | inhibition at 29 µM (SKMEL-28 cells): 96.1% | inhibition at 0.23 µM (DU145 cells; Homo sapiens, DU-145, amiodarone 0.23 μM, read-out: Percent inhibition of Alamar Blue Metabolism): -6% | inhibition at 0.46 µM (DU145 cells; Homo sapiens, DU-145, amiodarone 0.46 μM, read-out: Percent inhibition of Alamar Blue Metabolism): -3% | inhibition at 0.92 µM (DU145 cells; Homo sapiens, DU-145, amiodarone 0.92 μM, read-out: Percent inhibition of Alamar Blue Metabolism): 0.4% | inhibition at 1.8 µM (DU145 cells; Homo sapiens, DU-145, amiodarone 1.8 μM, read-out: Percent inhibition of Alamar Blue Metabolism): -3.1% | inhibition at 3.7 µM (DU145 cells; Homo sapiens, DU-145, amiodarone 3.7 μM, read-out: Percent inhibition of Alamar Blue Metabolism): 2.3% | inhibition at 7.3 µM (DU145 cells; Homo sapiens, DU-145, amiodarone 7.3 μM, read-out: Percent inhibition of Alamar Blue Metabolism): -0.8% | inhibition at 15 µM (DU145 cells; Homo sapiens, DU-145, amiodarone 15 μM, read-out: Percent inhibition of Alamar Blue Metabolism): -4.3% | inhibition at 29 µM (DU145 cells; Homo sapiens, DU-145, amiodarone 29 μM, read-out: Percent inhibition of Alamar Blue Metabolism): 60.5% | Percent inhibition of Alamar Blue Metabolism (DU145 cells; amiodarone 29 μM): 50.5% | inhibition at 0.23 µM (A549 cells; [1]): 2% | inhibition at 0.46 µM (A549 cells; [1]): -1.6% | inhibition at 1.8 µM (A549 cells; [1]): 3.2% | inhibition at 3.7 µM (A549 cells; [1]): 2.6% | inhibition at 7.3 µM (A549 cells; [1]): -3.6% | inhibition at 15 µM (A549 cells; [1]): 17.3% | inhibition at 29 µM (A549 cells; [1]): 90.7% | Percent inhibition of Alamar Blue Metabolism (A549 cells; amiodarone 7.3 μM, itraconazole 0 μM): practically no inhibition

Source: patent US20070179152A1, “Combination therapy for the treatment of neoplasms” (priority 2003, published 2007)
